No constants are given. Whether binding was seen depends on the method and setting. A result given as binding can be weak or reduced; the word gives no strength. For some of these results: Where a sequence is shown, tags or fusion partners need not be part of it.
Experiments:
[1] = molecular target: recombinant murine voltage-dependent calcium channel subunit delta2, (α2)δ2 peptide (mouse) (UniProt Q6PHS9); assay: pull-down; (α2)δ2 peptides with NR1 C1 when the NR1 C1 HR1-HR2 interaction was disrupted (Supplementary Figure S9D); both purified
[2] = molecular target: recombinant murine voltage-dependent calcium channel subunit delta2, (α2)δ2 peptide (mouse) (UniProt Q6PHS9); assay: pull-down; (α2)δ2 peptides with σ1R, HINT1 or CaM and the effect of calcium, by the protocol used for immobilised (α2)δ1 (Supplementary Figure S9A-C); both purified
[3] = compound: C terminal truncated (−30 aa) (α2)δ1 peptide (mouse); assay: pull-down; (α2)δ1 peptides (full or truncated) covalently attached to NHS-activated Sepharose; prey 100 nM (σ1R 30 or 100 nM, or increasing) in 300 µL 50 mM Tris-HCl pH 7.4, 0.2% CHAPS, increasing CaCl2 or 2.5 mM CaCl2, 30 min at RT; Western blot; no disrupting NR1 peptide; both purified

The chains behind the UniProt entries cited, without tags or fusion partners.
UniProt O55242: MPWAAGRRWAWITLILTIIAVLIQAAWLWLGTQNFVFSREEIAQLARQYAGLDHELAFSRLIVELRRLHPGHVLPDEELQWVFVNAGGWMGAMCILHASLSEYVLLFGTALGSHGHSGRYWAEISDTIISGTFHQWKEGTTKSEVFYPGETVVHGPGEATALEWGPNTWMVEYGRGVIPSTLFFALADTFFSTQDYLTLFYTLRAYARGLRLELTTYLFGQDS

Molecule	binding [1]	binding [2]	binding [3]
cytosolic C0-C1-C2 region of the glutamate NMDAR NR1 subunit (from UniProt P35438-1 834-938) (domain or fragment)	binds	–	–
recombinant sigma 1 receptor (from UniProt O55242 1-223)	–	binds	–
recombinant histidine triad nucleotide-binding protein 1 (protein, UniProt P70349 1-126) MADEIAKAQVAQPGGDTIFGKIIRKEIPAKIIFEDDRCLAFHDISPQAPTHFLVIPKKHISQISVADDDDESLLGHLMIVGKKCAADLGLKRGYRMVVNEGADGGQSVYHIHLHVLGGRQMNWPPG	–	no binding	binds
